Reference: PubChem BioAssay AID504842 (National Center for Advancing Translational Sciences (NCATS), 2011)
In all, about 330,000 compounds went through this assay and about 100 (0.03%) were called active. This list was built around the results that the source calls inconclusive (neither active nor inactive); the mix of calls is not that of the screen. The call rests on the fitted dose curve; in most records, active means well fitted inhibition curve with a large enough effect; inconclusive means small, poorly fitted or top-dose-only effect; inactive means flat fitted curve, though single readings scatter. Potencies of inconclusive entries are doubtful fits and often do not repeat.
Further: nearly all actives have a fitted effect of over 80% in size.
Potency means the concentration at half of the fitted maximal effect.
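Wherever Potency is given: enzyme at 25 nM with ATP substrate at 10 µM during the reaction.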

These molecules were tested on Chaperonin Mm-Cpn (Methanococcus maripaludis) (assay: Inhibitors of TCP-1 ring complex (TRiC) of Methanococcus maripaludis (MmCpn): qHTS). Settings: purified Mm-Cpn ATPase, ADP Transcreener TR-FRET.
Procedure, shortened: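 ATP (10 uM final) was added to archaeal chaperonin (25 nM final) after 10 min exposure to test compound at 37°C; after 30 min further incubation, ADP was detected by competitive TR-FRET.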
For Cc1ccc(CN2C(=O)N/C(=C\c3ccc(-c4ccc(C(=O)O)cc4C)o3)C2=O)cc1, the Potency was inconclusive: 11.2 µM [inhibitor, single point].
For CCCCn1c(SCc2nc3ccccc3s2)nc2cc(S(N)(=O)=O)ccc21, the Potency was “inactive”.
In the case of CN(C)c1ccc(N=Cc2nc(-c3ccccc3)oc2O)cc1, the Potency is reported as “inactive”.
For COc1ccccc1-c1sc2ccccc2c1C#Cc1ccc(N(C)C)cc1, the Potency was inconclusive: 31.6 µM [inhibitor, partial curve, poor fit].
For COC(=O)C(Cc1ccccc1)NC(=O)c1cc(S(=O)(=O)N(C)C)ccc1Cl (centres undefined), the Potency was inconclusive: 355 µM [inhibitor, partial curve, poor fit].
CCOC(=O)C1(CCOc2ccccc2)CCN(Cc2cc(OC)ccc2OC)CC1 was tested, and the Potency was “inactive”.
In the case of CCN(C(=O)/C=C/c1ccc(OC)cc1)C1CCS(=O)(=O)C1 (centres undefined), the Potency is reported as “inactive”.
O=C(O)CCNC(=O)/C(=C/C=C/c1ccccc1)NC(=O)c1ccccc1 was tested, and the Potency was “inactive”.
With Cc1cc2cc(CNC(=O)c3ccc4c(c3)OCO4)ccc2n1C the Potency was inconclusive: 158 µM [inhibitor, partial curve, poor fit].
With S=c1nccc(-c2ccc(Cl)cc2)[nH]1 the Potency was “inactive”.
In the case of COc1cccc(C2CC3(CC(C)(C)NC(=S)N3)Oc3cc(O)ccc32)c1 (centres undefined), the Potency is reported as “inactive”.
In the case of CCCc1nc(SCc2cccnc2)c2c(=O)n(C)c(=O)n(C)c2n1, the Potency is reported as “inactive”.
With S=c1[nH]nc(-c2ccccc2)o1 the Potency was inconclusive: 50.1 µM [inhibitor, partial curve, poor fit].
COCCNC(=S)Nc1cc(OC)c(OC)cc1C#N was tested, and the Potency was “inactive”.
CCCc1cc(C(=O)NCc2ccco2)no1 was tested, and the Potency was inconclusive: 14.1 µM [inhibitor, single point].
In the case of O=C(NCc1cc2ccccc2[nH]1)c1ccccc1F, the Potency is reported as inconclusive: 70.8 µM [inhibitor, single point].
In the case of O=C(CSc1ncnc2c1nnn2Cc1ccccc1)NC1CCCC1, the Potency is reported as inconclusive: 15.8 µM [inhibitor, single point].
For CN1CCN(NC(=O)c2cc(-c3ccc(Br)s3)nc3ccccc23)CC1, the Potency was inconclusive: 63.1 µM [inhibitor, partial curve, poor fit].
With C/C(=C\C(=O)c1ccc(Cl)s1)N(C)C the Potency was inconclusive: 44.7 µM [inhibitor, single point].
With CC(C)NC(=S)NC(=O)c1ccc(-c2ccccc2)cc1 the Potency was “inactive”.
With Cn1c(=O)c2sccc2n2c(CCCC(=O)NCc3ccc(F)cc3)nnc12 the Potency was inconclusive: 100 µM [inhibitor, partial curve, poor fit].
In the case of O=C(O)Cn1cc(C(=S)N2CCOCC2)c2ccccc21, the Potency is reported as “inactive”.
COc1cc(OC)cc(C(=O)NCCOC23CC4CC(CC(C4)C2)C3)c1 was tested, and the Potency was “inactive”.
With Cc1ccc(C(=O)NCC(=O)OCC(=O)c2ccc(Br)s2)cc1 the Potency was inconclusive: 398 µM [inhibitor, partial curve, poor fit].
With CS(=O)(=O)N1CCN(C(=O)Cc2ccc(Br)cc2)CC1 the Potency was inconclusive: 12.6 µM [inhibitor, single point].
CSc1c[n+]2c(n1C)CCC2 was tested, and the Potency was “inactive”.
With CC(=O)N1N=C(c2ccccc2)CC1c1cccc([N+](=O)[O-])c1 (centres undefined) the Potency was “inactive”.
Cc1ccc(N(NC(=O)C(C)(C)O)C(=O)c2ccccc2)cc1C was tested, and the Potency was inconclusive: 79.4 µM [inhibitor, single point].
With N/C(=N\OC(=O)COc1cc(Cl)c(Cl)cc1Cl)c1ccncc1 the Potency was “inactive”.
For Cc1ccc(/C=C(\NC(=O)c2ccc(C)cc2)C(=O)NCCCn2ccnc2)cc1, the Potency was inconclusive: 22.4 µM [inhibitor, single point].
With Cc1cc(SCC(=O)c2ccc(Cl)cc2)nc(=O)[nH]1 the Potency was inconclusive: 56.2 µM [inhibitor, single point].
For CCN(CC)c1ccc(/C=C/C(=O)c2ccc(Br)cc2)cc1, the Potency was “inactive”.
Cc1ccc(-c2csc(NC(=O)CSc3nc4ccccc4c(=O)n3CCCN(C)C)n2)cc1 was tested, and the Potency was inconclusive: 282 µM [inhibitor, partial curve, poor fit].
For Cc1ccc(-c2cn(-c3ccccc3F)c(=S)[nH]2)cc1, the Potency was “inactive”.
S=c1[nH]nc(-c2ccccn2)n1/N=C/c1cccc(Cl)c1 was tested, and the Potency was “inactive”.
COc1ccc(CN(CCN2CCOCC2)C(=O)c2c(F)cccc2F)cc1OC was tested, and the Potency was inconclusive: 25.1 µM [inhibitor, single point].
With O=C(Nc1ccon1)c1ccc(Br)s1 the Potency was inconclusive: 89.1 µM [inhibitor, single point].
In the case of CC(C)Sc1nc2sc3c(c2c2nnc(SCC(=O)NCc4ccco4)n12)CCCC3, the Potency is reported as “inactive”.
For COc1ccc(/C=C/C(=O)c2ccc3ccccc3c2O)cc1CN1CCOCC1, the Potency was “inactive”.
CCC(C)c1ccc(NC(=O)c2c([N+](=O)[O-])cnn2CC)cc1 (centres undefined) was tested, and the Potency was “inactive”.
In the case of CCCCNC(=O)CN1CCN(Cc2ccc3cc(OC)ccc3c2)CC1, the Potency is reported as “inactive”.
With CCOC(=O)N1CCN(C(=O)/C=C/c2cccc([N+](=O)[O-])c2)CC1 the Potency was “inactive”.
O=C(NCc1csc(-c2cccs2)n1)c1ccsc1 was tested, and the Potency was inconclusive: 224 µM [inhibitor, partial curve, poor fit].
CCc1ccc(-c2cc(C(=O)N3N=C(C(F)F)CC3(O)C(F)F)c3ccccc3n2)cc1 (centres undefined) was tested, and the Potency was inconclusive: 251 µM [inhibitor, partial curve, poor fit].
In the case of CC1CCN(C(=S)c2ccc([N+](=O)[O-])cc2)CC1, the Potency is reported as “inactive”.
CCOC(=O)c1[nH]c2ccc(OC)cc2c1NC(=S)N1CCN(c2cccc(Cl)c2)CC1 was tested, and the Potency was inconclusive: 70.8 µM [inhibitor, single point].
For COc1cc2oc(=O)c(Br)c(C)c2c(OC)c1OC, the Potency was inconclusive: 126 µM [inhibitor, partial curve, poor fit].
O=C(c1cccs1)N(c1ccc(F)cc1)C1C=CS(=O)(=O)C1 (centres undefined) was tested, and the Potency was inconclusive: 79.4 µM [inhibitor, partial curve].
COc1ccc(Cn2c(=O)n(Cc3ccco3)c(=N)c3c4c(sc32)COC(C)(C)C4)cc1 was tested, and the Potency was inconclusive: 100 µM [inhibitor, single point].
Cc1ccc(S(=O)(=O)NCC(=O)N2CCOCCOCCOCCOCC2)cc1 was tested, and the Potency was inconclusive: 17.8 µM [inhibitor, single point].
With COc1ccc(CCNC(=O)c2ccc3c(c2)N(Cc2ccc(F)cc2)CCS3)cc1OC the Potency was inconclusive: 89.1 µM [inhibitor, single point].
For O=C(OCn1ncc(Br)c(Br)c1=O)c1ccccc1Cl, the Potency was inconclusive: 50.1 µM [inhibitor, partial curve, poor fit].
In the case of Cc1cccc(Oc2ncnc(N)c2[N+](=O)[O-])c1, the Potency is reported as inconclusive: 11.2 µM [inhibitor, single point].
With Cc1c(Cc2ccccc2)c(=O)n2c([nH]c3ccccc32)c1C#N the Potency was inconclusive: 100 µM [inhibitor, single point].
In the case of Cc1ccc(NC(=O)Nc2cnc3ccccc3c2)cc1, the Potency is reported as inconclusive: 89.1 µM [inhibitor, single point].
In the case of CCc1ccc2nc(N3C(=O)C(O)=C(C(=O)c4ccco4)C3c3cccs3)sc2c1 (centres undefined), the Potency is reported as inconclusive: 126 µM [inhibitor, partial curve, poor fit].
For COc1ccccc1OC(C)C(=O)Nc1nc(-c2ccc(S(=O)(=O)N3CCOCC3)cc2)cs1 (centres undefined), the Potency was inconclusive: 70.8 µM [inhibitor, single point].
With O=C(CN1C(=O)COc2ccccc21)NNC(=O)Nc1ccccc1F the Potency was inconclusive: 112 µM [inhibitor, single point].
[N-]=[N+]=NCCN1CCN(Cc2ccccc2)CCC1=O was tested, and the Potency was inconclusive: 398 µM [inhibitor, partial curve, poor fit].
CCOC(=O)C1=C(COC(=O)c2cccc(N(C)C)c2)NC(=O)NC1C (centres undefined) was tested, and the Potency was inconclusive: 56.2 µM [inhibitor, single point].
CCC(C)c1ccc(C(C)NC(=S)NC2CCCCC2)cc1 (centres undefined) was tested, and the Potency was “inactive”.
COc1ccc(N(CC(=O)NCCSC2CCCCC2)S(=O)(=O)c2ccc(C)cc2)cc1 was tested, and the Potency was “inactive”.
COc1ccc(COC(=O)CCS(=O)(=O)c2ccc(C)cc2)cc1F was tested, and the Potency was “inactive”.
CCCC(=O)Nc1ccc(C(=O)N2CCCC2)cc1 was tested, and the Potency was inconclusive: 20 µM [inhibitor, single point].
For OC(CNCc1ccc(F)cc1)(c1ccc(F)cc1)c1ccc(F)cc1, the Potency was “inactive”.
In the case of COc1ccccc1C(=O)N(Cc1cccs1)C1CCS(=O)(=O)C1 (centres undefined), the Potency is reported as inconclusive: 14.1 µM [inhibitor, single point].
Cn1c(SCC(=O)Nc2nc3ccccc3s2)nnc1-c1ccccc1 was tested, and the Potency was inconclusive: 22.4 µM [inhibitor, single point].
CCOc1ccc(-n2c(=S)sc3c(=O)[nH]c(SCC(=O)C(C)(C)C)nc32)cc1 was tested, and the Potency was “inactive”.
With O=S1(=O)C=C(Sc2nnc(-c3ccccc3)o2)c2ccccc21 the Potency was inconclusive: 126 µM [inhibitor, partial curve].
In the case of O=C(c1cc(Cl)c(=O)n(Cc2ccc(Cl)cc2)c1)N1CCOCC1, the Potency is reported as inconclusive: 100 µM [inhibitor, single point].
In the case of CCN1/C(=C/C=C/c2sc3ccccc3[n+]2CC)Sc2ccccc21, the Potency is reported as inconclusive: 79.4 µM [inhibitor, partial curve, poor fit].
With O=C(Nc1ccc(Cl)c([N+](=O)[O-])c1)ONC1=NCCCCC1 the Potency was “inactive”.
O=S1(=O)N=C(N/N=C/C=C/c2ccccc2)c2ccccc21 was tested, and the Potency was inconclusive: 63.1 µM [inhibitor, single point].
For CCOC(=O)c1c(N)sc(=S)c2c1CCC2, the Potency was inconclusive: 100 µM [inhibitor, partial curve, poor fit].
